At least one compound was matched to its structure with a doubt left.
Legend:
[1] = test system: Klebsiella pneumonia; assay: Electron microscope observation of Klebsiella pneumonia cultured in culture fluid containing imipenem; assay type: cell-based; conditions: 1 mg/L imipenem
[2] = test system: Escherichia coli; assay: Electron microscope observation of Escherichia coli cultured in culture fluid containing imipenem; assay type: cell-based; conditions: 1 mg/L imipenem
[3] = microbes confirmed resistant to imipenem, 30 and 120 minutes (FIG. 6 a, b)
[4] = microbes confirmed susceptible to imipenem, 30 and 120 minutes (FIG. 6 c, d)

C[C@@H](O)[C@H]1C(=O)N2C(C(=O)O)=C(SCCN=CN)C[C@H]12 [imipenem]
density of the cluster formed by the microbes [1, 3]: low
division growth of microbes [1, 3]: division growth in many microbes
density of the cluster formed by the microbes [1, 4]: high density state
division growth of microbes [1, 4]: no division
shape of appearance of each microbe [1, 4]: long axis shortened to a shape close to a circle
brightness of the microbes, susceptible compared with resistant ([1]; susceptible microbes (FIG. 6 c, d) versus resistant microbes (a, b), 30 and 120 minutes): lower
cluster formation of microbes (electron microscope image) ([2]; microbes confirmed resistant to imipenem, 30 and 120 minutes from start of culture (FIG. 5 a, b)): form clusters
cluster formation of microbes (electron microscope image) ([2]; microbes confirmed susceptible to imipenem, 30 minutes from start of culture (FIG. 5 c)): very small
cluster formation of microbes (electron microscope image) ([2]; microbes confirmed susceptible to imipenem, 120 minutes from start of culture (FIG. 5 d)): no cluster is formed
brightness of the microbes, susceptible compared with resistant ([2]; susceptible microbes (FIG. 5 c, d) versus resistant microbes (a, b), 30 and 120 minutes): higher

Reference: patent publication US12698519B2, “Chemical susceptibility inspection method” (Hitachi High-Tech Corporation, priority 2019, dated 2026)
